The record followed here is PubChem BioAssay AID2314 (National Center for Advancing Translational Sciences (NCATS), 2010).

The list shows a part of the results, in another mix than the full data. Calls of active or inactive are those of the source. Rule as the data show it: active = max response mostly above about 13% (no sharp cut-off); inactive = mostly below about 14%.

The assay is described as follows: Cycloheximide Counterscreen for Small Molecule Inhibitors of Shiga Toxin. Also: read at 38.3 µM for the half of the compounds with a filed dose; 0% is about no effect. As to conditions: cell reporter, cycloheximide protein synthesis inhibition counterscreen; hits give high values.
In the case of `COc1ccc(/C(N)=N/OC(=O)CSc2ccccc2)cc1`, the max response is active: 39.1%.
